Results taken from publication PMC9048679, “Correlation Between Improved Mating Efficiency and Weakened Scaffold-Kinase Interaction in the Mating Pheromone Response Pathway Revealed by Interspecies Complementation” (Frontiers in Microbiology, 2022).
Where two headings read alike, the source gives them in different places. No constants are given. Whether binding was seen depends on the method and setting. Binding calls can cover weak binding; strength is not graded here. For some assays here: Sequences can lack the tags named with a protein.

What was measured:
[1] = molecular target: KlSte7 (Ste7 of Kluyveromyces lactis), Gal4-BD fusion (K. lactis) (UniProt Q6CSZ8); assay: two-hybrid; Matchmaker GAL4 system; Ste5 forms on Gal4-AD (pGADT7, AH109), Ste7 orthologs on Gal4-BD (pGBKT7, Y187), diploids on SC-Leu-Trp; quantitative β-galactosidase assay of cell lysate with ONPG; units of the same BD-Ste7 with void pGADT7 subtracted; mean of three colonies
[2] = molecular target: KlSte7 (Ste7 of Kluyveromyces lactis), Gal4-BD fusion (K. lactis) (UniProt Q6CSZ8); assay: as above; remark: listed apart in the source

Row | binding [1] | binding [2] | Molecule
1 | binds | – | KmSte5ΔS (KmSte5 with the negatively charged segment shortened to the length of that of KlSte5), Gal4-AD fusion (from UniProt A0ABX6ETE1)
2 | – | binds | ScSte5 (Ste5 of Saccharomyces cerevisiae), Gal4-AD fusion (protein, UniProt P32917 1-917) MMETPTDNIVSPFHNFGSSTQYSGTLSRTPNQIIELEKPSTLSPLSRGKKWTEKLARFQRSSAKKKRFSPSPISSSTFSFSPKSRVTSSNSSGNEDGNLMNTPSTVSTDYLPQHPHRTSSLPRPNSNLFHASNSNLSRANEPPRAENLSDNIPPKVAPFGYPIQRTSIKKSFLNASCTLCDEPISNRRKGEKIIELACGHLSHQECLIISFGTTSKADVRALFPFCTKCKKDTNKAVQCIPENDELKDILISDFLIHKIPDSELSITPQSRFPPYSPLLPPFGLSYTPVERQTIYSQAPSLNPNLILAAPPKERNQIPQKKSNYTFLHSPLGHRRIPSGANSILADTSVALSANDSISAVSNSVRAKDDETKTTLPLLRSYFIQILLNNFQEELQDWRIDGDYGLLRLVDKLMISKDGQRYIQCWCFLFEDAFVIAEVDNDVDVLEIRLKNLEVFTPIANLRMTTLEASVLKCTLNKQHCADLSDLYIVQNINSDESTTVQKWISGILNQDFVFNEDNITSTLPILPIIKNFSKDVGNGRHETSTFLGLINPNKVVEVGNVHDNDTVIIRRGFTLNSGECSRQSTVDSIQSVLTTISSILSLKREKPDNLAIILQIDFTKLKEEDSLIVVYNSLKALTIKFARLQFCFVDRNNYVLDYGSVLHKIDSLDSISNLKSKSSSTQFSPIWLKNTLYPENIHEHLGIVAVSNSNMEAKKSILFQDYRCFTSFGRRRPNELKIKVGYLNVDYSDKIDELVEASSWTFVLETLCYSFGLSFDEHDDDDEEDNDDSTDNELDNSSGSLSDAESTTTIHIDSPFDNENATANMVNDRNLLTEGEHSNIENLETVASSVQPALIPNIRFSLHSEEEGTNENENENDMPVLLLSDMDKGIDGITRRSSFSSLIESGNNNCPLHMDYI
